Results on 1 substance are retold here after PMC6803327.

By UniProt entry, the sequences of proteins in these tests, tags left out.
UniProt A0A0H3MD02: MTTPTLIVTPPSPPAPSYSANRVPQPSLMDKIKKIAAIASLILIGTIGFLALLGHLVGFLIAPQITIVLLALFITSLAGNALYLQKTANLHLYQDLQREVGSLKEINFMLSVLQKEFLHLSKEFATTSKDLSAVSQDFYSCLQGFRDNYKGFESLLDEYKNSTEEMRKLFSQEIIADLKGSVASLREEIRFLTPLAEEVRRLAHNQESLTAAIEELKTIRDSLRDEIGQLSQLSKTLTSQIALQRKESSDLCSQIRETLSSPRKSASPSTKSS

Results are given in words; binding and its absence hold for the method and conditions named. In cells and extracts the contact can be indirect. A yes stands for co-enrichment or nearness to the bait. Other partners may have been found.

This assay deals with IncA-APEX2 (C. trachomatis (serovar of the cloned gene not stated)). As to the kind of experiment: proximity labelling; as a1 up to the streptavidin beads; eluates read by Western blot (anti-IncA, anti-CT223, anti-LRRF1).

For the substance “IncA (endogenous) (from UniProt A0A0H3MD02 1-273)”, the binding entry was “binds”.
